# Source: PubChem BioAssay AID1487 (National Center for Advancing Translational Sciences (NCATS), 2009)
# Some of the results follow. Further columns of the screen follow, without active or inactive calls. The list favours compounds with an active or inconclusive main result. The note in brackets gives the kind of curve behind each potency; many fits are weak.
# Assay: qHTS Assay for Modulators of Lamin A Splicing
# Settings: HeLa LMNA splicing GFP/RFP minigene ratio, 48 h
# Summary of the method: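 S3 HeLa cells stably expressing lamin A-EGFP splicing minigene plus DsRed2, 600 cells/well, 48 h compound exposure at 37C. Laser-scanning cytometry; analysed as GFP (500-530 nm)/RFP (575-640 nm) total intensity ratio; 0.5% DMSO vehicle.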
# [1] = measured here: GFP splicing reporter channel
# [2] = measured here: RFP viability control channel
SMILES,AC50 [1],AC50 [2]
Nc1nc2ccccc2n1/N=C/c1ccc(-c2ccccc2)o1,"20 µM [rising, partial curve, poor fit]","12.6 µM [rising, partial curve]"
O=C(Nc1ccc(N2CCN(C(=O)c3ccccc3)CC2)c(Cl)c1)c1ccco1,–,"12.6 µM [rising, single point]"
COc1nc(N(C)S(=O)(=O)c2ccc(C)cc2)nc(C)c1Cl,–,"11.2 µM [rising, partial curve]"
Nn1c(SCc2ccc(Br)cc2)nnc1-c1ccccn1,–,"0.00501 µM [falling, full curve, poor fit]"
Cc1ccc(N(CC(=O)NCc2ccc(F)cc2)C(=O)c2csnn2)c(C)c1,–,"0.0398 µM [rising, full curve, poor fit]"
Cc1ccc(Nc2nnc(SCC(=O)Nc3cccc(S(=O)(=O)NC4=NCCCCC4)c3)s2)c(C)c1,"10 µM [rising, single point]",–
CC(C)(C)c1ccc(C(=O)NCCn2c(N)c(C#N)c3nc4ccccc4nc32)cc1,"7.08 µM [rising, partial curve]","8.91 µM [rising, partial curve]"
COc1ccc(Nc2nc(N)nc(CSC(=S)N3CCN(c4ccccc4)CC3)n2)cc1,–,"25.1 µM [rising, single point]"
O=C(CCN1CCC(c2ccccc2)C1)c1cccs1 (stereo not drawn),–,"35.5 µM [rising, single point]"
O=C(Cn1c(C(F)(F)F)nc2ccccc21)Oc1cccc(C(F)(F)F)c1,–,"0.562 µM [falling, full curve, poor fit]"
O=C1CCn2nc(-c3ccc(Cl)cc3)cc2N1,"3.16 µM [falling, full curve]","6.31 µM [falling, full curve]"
CSc1cnc2c(N)nc(N(C)C)nc2n1,–,"35.5 µM [rising, single point]"
CCN(CC)S(=O)(=O)c1ccc(OC)c(NC(=S)Nc2cccc(C)c2C)c1,–,"22.4 µM [rising, partial curve, poor fit]"
Fc1ccc2c(c1)C(c1cccnc1)=NNC(c1cccs1)=N2,–,"31.6 µM [rising, single point]"
COc1ccc(/C=C/C(=O)C(C(N)=O)=C2SCCS2)cc1,–,"11.2 µM [rising, partial curve]"
Cc1c(CNC(=O)C2CC2)c(-n2cccc2)n(Cc2ccccc2)c1C,"0.0708 µM [falling, full curve, poor fit]","0.00501 µM [falling, full curve, poor fit]"
COc1ccc(NCc2nnc3n2CCCCC3)c(OC)c1,"2.51 µM [rising, single point]",–
O=C(CN1C(=O)C2(SCC(=O)N2c2ccc(F)cc2)c2ccccc21)NCCc1ccccc1 (stereo not drawn),–,"0.794 µM [falling, full curve, poor fit]"
CC1C2NC(=O)N(Cc3ccccc3)C1(C)Oc1ccccc12 (stereo not drawn),"35.5 µM [falling, single point]","3.16 µM [falling, partial curve, poor fit]"

SMILES,AC50 [1],AC50 [2]
COCc1[nH][nH]c(=O)c1C=Nc1ccc(C(F)(F)F)cc1,"0.0891 µM [rising, full curve, poor fit]",–
NC(=O)c1cccn1Cc1ccccc1Cl,–,"0.0447 µM [falling, full curve, poor fit]"
O=C(O)c1cccnc1,"35.5 µM [rising, single point]",–
COc1cccc(-c2cc(C(F)(F)F)nc(-n3ccc([N+](=O)[O-])n3)n2)c1,"5.62 µM [falling, partial curve, poor fit]","0.316 µM [falling, full curve]"
CCCC(=O)Nc1ccc(Sc2ccc([N+](=O)[O-])cc2)cc1,"35.5 µM [rising, single point]","35.5 µM [rising, single point]"
CCCCN(CCCC)C(=O)CSc1nnc(-c2cc(OC)c(OC)c(OC)c2)o1,–,"12.6 µM [rising, partial curve, poor fit]"
O=C(c1ccccc1F)N1CCN(Cc2ccccc2F)CC1,–,"15.8 µM [rising, single point]"
COc1ccc(CNC(=O)C(c2cccs2)N(Cc2ccco2)C(=O)Cc2cccs2)cc1 (stereo not drawn),–,"35.5 µM [rising, single point]"
O=S(=O)(c1ccc(OCC2CO2)cc1)c1ccc(OCC2CO2)cc1 (stereo not drawn),–,"3.16 µM [rising, single point]"
CCC(=O)NNC(=O)CCC(=O)Nc1cccc(Cl)c1C,"0.00316 µM [falling, full curve]",–
Cc1c(Cl)c(C(=O)NC2C3CC4CC(C3)CC2C4)nn1C (stereo not drawn),"14.1 µM [falling, partial curve, poor fit]","25.1 µM [falling, single point]"
CNC(=O)C1CCC(Cn2c(=O)c3sccc3n(CC(=O)Nc3cc(F)ccc3F)c2=O)CC1 (stereo not drawn),"0.562 µM [falling, full curve, poor fit]",–
COc1cn(CC(=O)Nc2cc(C)ccc2C)c(CN2CCCCC2)cc1=O,"0.0251 µM [rising, full curve]","2.24 µM [rising, single point]"
CCN1C(=O)CS/C1=N\S(=O)(=O)c1ccc(Cl)cc1,"0.112 µM [falling, full curve]","1.41 µM [falling, full curve]"
CCOC(=O)c1cc2c(ccn2C)n1CC(=O)N(Cc1ccccc1)c1ccccc1,"17.8 µM [rising, single point]","22.4 µM [rising, single point]"
CC(C)CNS(=O)(=O)c1ccc(NC(=O)Cn2nc(-c3ccc(F)cc3)ccc2=O)cc1,–,"35.5 µM [rising, single point]"
CCCCn1nc(NC(=O)c2cccs2)c2cc3cc(OC)ccc3nc21,–,"35.5 µM [rising, single point]"
O=C(O)c1ccc2c(=O)[nH]c(CCl)nc2c1,"11.2 µM [falling, single point]",–

# 3 compounds out of the list, sorted by SMILES length, ascending:
SMILES,AC50 [1],AC50 [2]
COCc1[nH][nH]c(=O)c1C=Nc1ccc(C(F)(F)F)cc1,"0.0891 µM [rising, full curve, poor fit]",–
CCOC(=O)c1cc2c(ccn2C)n1CC(=O)N(Cc1ccccc1)c1ccccc1,"17.8 µM [rising, single point]","22.4 µM [rising, single point]"
COc1ccc(CNC(=O)C(c2cccs2)N(Cc2ccco2)C(=O)Cc2cccs2)cc1 (stereo not drawn),–,"35.5 µM [rising, single point]"
